Experimental data as given in publication PMC3673989, “Effect of Single Amino Acid Substitution Observed in Cancer on Pim-1 Kinase Thermodynamic Stability and Structure” (PLoS ONE, 2013).

Biological target: Pim-1 variants
Assay: Caliper mobility shift kinase assay
Assay type: biochemical, human
Conditions: exception K00487 and K00207a for Y53H
Experimental: Phosphorylation reaction was monitored using a coupled-enzyme assay in which ADP production is coupled to NADH oxidation by pyruvate kinase and lactate dehydrogenase. […] In the Caliper mobility shift assays kinase reactions were analyzed by microfluidic capillary electrophoresis. The final assay buffer was 50 mM HEPES, pH 7.5, 1 mM DTT, 0.02% Tween 20, 0.02% BSA, 10 mM beta-glycerophosphate, 0.01 mM Na3VO4, 0.6% DMSO, 8 mM MgCl2, 2 µM peptide and 0.2 nM kinase. The reactions were started by addition of substrate mix consisting of ATP and peptide substrate to kinase and inhibitor solution. ATP concentrations were adjusted to the Kmvalues of the specific Pim enzyme. After incubation for 60 min at 30°C reactions were terminated with 100 mM HEPES pH 7.5, 5% DMSO, 0.1% coating reagent (Caliper Lifescience) 10 mM EDTA pH 8.0, 0.015% Brij35. Levels of substrate and product were quantified by measuring the laser-induced fluorescence intensities of fluorescein labels of the peptide.

Structure (SMILES): CN[C@@H]1C[C@H]2O[C@@](C)([C@@H]1OC)n1c3ccccc3c3c4c(c5c6ccccc6n2c5c31)C(=O)NC4 [K00207a, STAUROSPORINE]
- IC50 for Pim-1 variants compared with wild type: closely similar
